For part of these data: A negative result means that nothing was seen under these conditions. For part of these data: At least one verdict was read from the data and is not stated in words by the source. For part of these data: Where a protein sequence is shown, tags need not be part of it. For part of these data: A weaker result is weaker than the reference pair of the same experiment.
Key:
[1] = molecular target: T1, MatP4A K71A,Q72A,R75A,R77A (Escherichia coli) (UniProt P0A8N0); assay: EMSA (native PAGE); conditions: 1 mM Mg2+, Native PAGE: 50 mM HEPES pH 7.5, 100 mM NaCl, 1 mM MgCl2, 1 mM DTT, 10% glycerol, on ice 30 min, FCS: 20 mM Tris-HCl pH 7.5, 50 mM NaCl, 0.3 mg/mL BSA, 2 mM DTT, recombinant protein, residues 1-132, protein details: C-terminal 6xHis
T1 sequence (looked up): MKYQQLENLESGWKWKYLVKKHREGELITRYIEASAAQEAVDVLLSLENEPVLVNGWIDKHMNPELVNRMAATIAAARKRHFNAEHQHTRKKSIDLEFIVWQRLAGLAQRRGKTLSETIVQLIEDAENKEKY

[2] = tested on: MukB long hinge (LH) + MatP (MatPΔ18C); assay: EMSA (native PAGE); conditions: 1 mM Mg2+, no ternary complex; Native PAGE: 50 mM HEPES pH 7.5, 100 mM NaCl, 1 mM MgCl2, 1 mM DTT, 10% glycerol, on ice 30 min; FCS: 20 mM Tris-HCl pH 7.5, 50 mM NaCl, 0.3 mg/mL BSA, 2 mM DTT; recombinant protein
[3] = tested on: MukB long hinge (LH) + MatP (MatPΔ18C) + ParC; assay: native MS; conditions: no LH2-MatP2(-matS)-ParC2 complex; Native PAGE: 50 mM HEPES pH 7.5, 100 mM NaCl, 1 mM MgCl2, 1 mM DTT, 10% glycerol, on ice 30 min; FCS: 20 mM Tris-HCl pH 7.5, 50 mM NaCl, 0.3 mg/mL BSA, 2 mM DTT; recombinant protein
[4] = molecular target: T2, MukB long hinge (LH) (Escherichia coli) (UniProt P22523); assay: native MS; conditions: text says 50 bp DNA without naming which fragment; Native PAGE: 50 mM HEPES pH 7.5, 100 mM NaCl, 1 mM MgCl2, 1 mM DTT, 10% glycerol, on ice 30 min; FCS: 20 mM Tris-HCl pH 7.5, 50 mM NaCl, 0.3 mg/mL BSA, 2 mM DTT; recombinant protein; residues 568-863
T2 sequence (looked up): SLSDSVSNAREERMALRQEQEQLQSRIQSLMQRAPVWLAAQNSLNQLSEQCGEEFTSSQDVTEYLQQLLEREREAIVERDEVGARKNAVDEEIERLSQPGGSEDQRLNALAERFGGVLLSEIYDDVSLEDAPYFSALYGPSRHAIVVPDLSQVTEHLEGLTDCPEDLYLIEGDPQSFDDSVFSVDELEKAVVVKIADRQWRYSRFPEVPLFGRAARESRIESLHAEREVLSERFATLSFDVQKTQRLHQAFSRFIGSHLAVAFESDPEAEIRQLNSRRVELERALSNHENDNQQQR

[5] = tested on: MukB long hinge (LH) + MatP (MatPΔ18C); assay: native MS; conditions: no ternary complex, binary MatP-matS and LH-MatP seen; Native PAGE: 50 mM HEPES pH 7.5, 100 mM NaCl, 1 mM MgCl2, 1 mM DTT, 10% glycerol, on ice 30 min; FCS: 20 mM Tris-HCl pH 7.5, 50 mM NaCl, 0.3 mg/mL BSA, 2 mM DTT; recombinant protein

Sequence	binding result ([1]; partial ability retained)	binding result [1]	binding result [2]	binding result [3]	binding result [4]	binding result [5]
CAGAGTTAATCACAACGGTTCTCGATCATCAAAGAAAAACAAGCTGTGCG (double strand) [50 bp nonspecific DNA]	binds more weakly					
CAGAGTTAATCAGAACGGTGACAATGTCACAAAGAAAAAGAACCTGTGCG (double strand) [50 bp matS DNA]		binds more weakly	no binding	no binding	no binding	no binding
